Source: paper PMC9385620
Results are given in words; binding and its absence hold for the method and conditions named. In cells and extracts the contact can be indirect. Some results given as binding are weak or reduced against the parent protein; the word gives no strength. Blank lines part the entries; values can stand above or below the substance they belong to.

By UniProt entry, the sequences of proteins in these tests, tags left out. Residues count along the entry.
UniProt P02545, residues 1-646: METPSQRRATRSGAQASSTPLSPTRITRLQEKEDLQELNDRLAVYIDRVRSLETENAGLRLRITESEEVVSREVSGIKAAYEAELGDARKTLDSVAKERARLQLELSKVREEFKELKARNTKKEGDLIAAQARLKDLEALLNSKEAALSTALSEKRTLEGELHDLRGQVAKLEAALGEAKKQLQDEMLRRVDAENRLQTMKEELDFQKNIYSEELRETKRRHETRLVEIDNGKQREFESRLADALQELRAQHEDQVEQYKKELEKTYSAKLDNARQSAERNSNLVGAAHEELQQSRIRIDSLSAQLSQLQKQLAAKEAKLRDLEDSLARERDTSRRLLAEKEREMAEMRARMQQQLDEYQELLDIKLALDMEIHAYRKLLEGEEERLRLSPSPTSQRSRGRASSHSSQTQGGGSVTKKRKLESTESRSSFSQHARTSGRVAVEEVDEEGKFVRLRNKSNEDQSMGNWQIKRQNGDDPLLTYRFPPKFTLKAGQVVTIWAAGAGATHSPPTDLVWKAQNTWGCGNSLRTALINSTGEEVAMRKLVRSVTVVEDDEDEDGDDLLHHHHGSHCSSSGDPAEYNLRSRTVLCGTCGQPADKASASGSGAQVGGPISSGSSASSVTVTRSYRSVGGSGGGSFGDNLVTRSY
UniProt Q9UBN7: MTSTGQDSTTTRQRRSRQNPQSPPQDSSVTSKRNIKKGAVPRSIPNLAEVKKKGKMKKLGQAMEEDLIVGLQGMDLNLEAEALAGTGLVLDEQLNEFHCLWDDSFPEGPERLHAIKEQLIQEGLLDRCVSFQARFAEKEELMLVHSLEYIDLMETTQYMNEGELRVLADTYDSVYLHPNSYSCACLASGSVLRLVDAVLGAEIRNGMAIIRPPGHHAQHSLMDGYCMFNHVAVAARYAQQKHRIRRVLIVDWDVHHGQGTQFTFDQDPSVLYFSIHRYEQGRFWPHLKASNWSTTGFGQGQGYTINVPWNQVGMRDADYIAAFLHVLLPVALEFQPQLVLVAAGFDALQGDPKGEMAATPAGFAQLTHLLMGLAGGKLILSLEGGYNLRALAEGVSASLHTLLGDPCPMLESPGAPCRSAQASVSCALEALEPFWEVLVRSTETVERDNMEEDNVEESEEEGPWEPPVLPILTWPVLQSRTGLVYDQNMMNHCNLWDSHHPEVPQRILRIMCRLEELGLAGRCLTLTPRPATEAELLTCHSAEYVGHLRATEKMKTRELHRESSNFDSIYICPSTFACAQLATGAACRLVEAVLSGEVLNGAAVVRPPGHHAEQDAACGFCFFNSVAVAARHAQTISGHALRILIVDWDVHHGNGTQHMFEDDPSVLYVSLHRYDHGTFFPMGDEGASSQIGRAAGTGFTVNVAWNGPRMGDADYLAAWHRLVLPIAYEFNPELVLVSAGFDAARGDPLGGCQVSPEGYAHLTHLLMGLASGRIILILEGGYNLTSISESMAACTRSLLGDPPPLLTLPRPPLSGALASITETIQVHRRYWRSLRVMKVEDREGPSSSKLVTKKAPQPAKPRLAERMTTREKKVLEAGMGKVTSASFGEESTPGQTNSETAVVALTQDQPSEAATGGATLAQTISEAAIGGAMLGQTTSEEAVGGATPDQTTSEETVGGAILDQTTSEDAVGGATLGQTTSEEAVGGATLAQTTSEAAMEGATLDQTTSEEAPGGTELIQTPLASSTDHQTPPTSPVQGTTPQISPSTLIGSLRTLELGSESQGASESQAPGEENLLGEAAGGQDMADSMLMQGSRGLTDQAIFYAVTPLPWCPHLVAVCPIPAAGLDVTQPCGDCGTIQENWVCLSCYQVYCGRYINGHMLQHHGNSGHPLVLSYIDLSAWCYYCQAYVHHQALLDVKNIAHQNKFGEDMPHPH

Assays:
[1] = biological target: lamin A (human LMNA in pcDNA3.1-3xFlag), ectopically expressed in 293T cells (human) (UniProt P02545); assay: co-IP; exogenous proteins expressed in 293 T cells; co-immunoprecipitation followed by Western blot
[2] = biological target: endogenous lamin A in PLC/PRF/5 and sk-Hep1 cells (human (endogenous in PLC/PRF/5 and sk-Hep1)) (UniProt P02545); assay: co-IP; endogenous proteins in PLC/PRF/5 and sk-Hep1 cells; reciprocal co-immunoprecipitation followed by Western blot
[3] = biological target: endogenous HDAC6 in PLC/PRF/5 and sk-Hep1 cells (human (endogenous in PLC/PRF/5 and sk-Hep1)) (UniProt Q9UBN7); assay: as above

binding [1]: binds
Substance: HDAC6 (human HDAC6 in pcDNA3.1-6xHIS), ectopically expressed in 293T cells (from UniProt Q9UBN7 1-1215) (enzyme)

binding [2]: binds
Substance: endogenous HDAC6 in PLC/PRF/5 and sk-Hep1 cells (from UniProt Q9UBN7 1-1215) (enzyme)

binding [3]: binds
Substance: endogenous lamin A in PLC/PRF/5 and sk-Hep1 cells (from UniProt P02545 1-646)
